Assay results reported in patent US11013716B2, “Method for providing an increased expression of telomerase, brain-derived neurotrophic factor, stromal cell-derived factor-1, CXC chemokine receptor 4, and/or immune regulatory factor of stem cell” (HAWKING BIOLOGICAL TECHNOLOGY CO., LTD, priority 2013, dated 2021).

System: SOD1-G93A transgenic mice
Assay: BBB scale of the hind limbs of SOD1-G93A transgenic mice
Assay type: in vivo
Details: 16 mg/kg once daily intraperitoneal; FIG. 3
Method: This example used the above SOD1-G93A transgenic mice as the object of study to perform in vivo analysis.
After the mice were treated for 30 days, the hind limbs of the mice were examined by BBB scale (Basso, Beattie, and Bresnahan (BBB) Locomotor Rating Scale). […] BBB scale is used to record the efficiency of the treatments.

## Nc1nc2ccc(OC(F)(F)F)cc2s1 [Riluzole, reference compound]
  Time after which the BBB scale of the hind limbs decreased rapidly: > 125 days
